{"source": "PubChem BioAssay AID1508588 (Peter MacCallum Cancer Centre, 2020)", "test": "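Genome-wide search for knock-downs that heighten vemurafenib action in melanoma cells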 (primary screen)", "system": "human WM266.4 melanoma cells (BRAF V600 mutant)", "knock-down reagent": "siRNA pool against human genes, 40 nM", "timing": "96 h from transfection to read-out", "conditions": "vemurafenib 300 nM (about IC25), added 48 h after transfection, for 48 h; comparison arm got DMSO vehicle only", "detection": "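Cell gain (DAPI nuclei at end minus before drug, mean of two replicates) and medium lactate by absorbance per cell, both as ratio to non-targeting siRNA, also grouped into fold-change classes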", "scale": "cell gain with vemurafenib: higher = more cell gain than with non-targeting siRNA; lactate per cell with vemurafenib: higher = more lactate made per cell", "call rule": "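Enhancement is called by pairing each knock-down's vehicle-arm and drug-arm fold-change classes for viability or glycolysis; which class combinations qualify is not given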", "meaning of the calls": "active = enhances vemurafenib effect; inactive = no enhancement seen", "note": "Here is an unselected part of about 18,000 deposited reagents. Over the whole deposit, 790 (4.4%) got an active call. 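Calls rest on a combination of fold-change classes in drug and vehicle arms, not all shown here.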 A number with no mark means an inactive call. Reagents against one gene are numbered here."}
{"gene knocked down": "CCDC7 (coiled-coil domain containing 7)", "reagent no.": 1, "cell gain with vemurafenib": 0.78, "lactate per cell with vemurafenib": 1.53}
{"gene knocked down": "CCDC7 (coiled-coil domain containing 7)", "reagent no.": 2, "cell gain with vemurafenib": 0.52, "lactate per cell with vemurafenib": 1.34}
{"gene knocked down": "PUDP (pseudouridine 5'-phosphatase)", "reagent no.": 1, "cell gain with vemurafenib": 0.77, "lactate per cell with vemurafenib": 1.26}
{"gene knocked down": "ADAM18 (ADAM metallopeptidase domain 18)", "reagent no.": 1, "cell gain with vemurafenib": "0.26 (active)", "lactate per cell with vemurafenib": 0.38}
{"gene knocked down": "AQP4 (aquaporin 4)", "reagent no.": 1, "cell gain with vemurafenib": 0.5, "lactate per cell with vemurafenib": 2.24}
{"gene knocked down": "WDR75 (WD repeat domain 75)", "reagent no.": 1, "cell gain with vemurafenib": 0.22, "lactate per cell with vemurafenib": 1.67}
{"gene knocked down": "PREP (prolyl endopeptidase)", "reagent no.": 1, "cell gain with vemurafenib": 0.56, "lactate per cell with vemurafenib": 1.02}
{"gene knocked down": "TUB (TUB bipartite transcription factor)", "reagent no.": 1, "cell gain with vemurafenib": 0.74, "lactate per cell with vemurafenib": 1.06}
{"gene knocked down": "GID4 (GID complex subunit 4 homolog)", "reagent no.": 1, "cell gain with vemurafenib": 0.84, "lactate per cell with vemurafenib": 0.58}
{"gene knocked down": "HIPK1 (homeodomain interacting protein kinase 1)", "reagent no.": 1, "cell gain with vemurafenib": 0.59, "lactate per cell with vemurafenib": 2.21}
{"gene knocked down": "NOS1AP (nitric oxide synthase 1 adaptor protein)", "reagent no.": 1, "cell gain with vemurafenib": 0.29, "lactate per cell with vemurafenib": 1.49}
{"gene knocked down": "SPMIP6 (sperm microtubule inner protein 6)", "reagent no.": 1, "cell gain with vemurafenib": 0.6, "lactate per cell with vemurafenib": 0.28}
{"gene knocked down": "PSCA (prostate stem cell antigen)", "reagent no.": 1, "cell gain with vemurafenib": -0.15, "lactate per cell with vemurafenib": 1.09}
{"gene knocked down": "TANGO2 (transport and golgi organization 2 homolog)", "reagent no.": 1, "cell gain with vemurafenib": "0.61 (active)", "lactate per cell with vemurafenib": 0.19}
{"gene knocked down": "ACTR6 (actin related protein 6)", "reagent no.": 1, "cell gain with vemurafenib": 0.62, "lactate per cell with vemurafenib": 0.94}
{"gene knocked down": "IL22RA2 (interleukin 22 receptor subunit alpha 2)", "reagent no.": 1, "cell gain with vemurafenib": 0.53, "lactate per cell with vemurafenib": 0.66}
{"gene knocked down": "XCL2 (X-C motif chemokine ligand 2)", "reagent no.": 1, "cell gain with vemurafenib": "0.61 (active)", "lactate per cell with vemurafenib": 0.66}
{"gene knocked down": "BLOC1S5 (biogenesis of lysosomal organelles complex 1 subunit 5)", "reagent no.": 1, "cell gain with vemurafenib": 0.36, "lactate per cell with vemurafenib": 0.82}
{"gene knocked down": "GOLGA2 (golgin A2)", "reagent no.": 1, "cell gain with vemurafenib": "0.22 (active)", "lactate per cell with vemurafenib": 0.36}
{"gene knocked down": "CCNH (cyclin H)", "reagent no.": 1, "cell gain with vemurafenib": 0.87, "lactate per cell with vemurafenib": 0.93}
{"gene knocked down": "SCAF8 (SR-related CTD associated factor 8)", "reagent no.": 1, "cell gain with vemurafenib": 1.02, "lactate per cell with vemurafenib": 0.47}
{"gene knocked down": "TMEM209 (transmembrane protein 209)", "reagent no.": 1, "cell gain with vemurafenib": 0.47, "lactate per cell with vemurafenib": 1.19}
{"gene knocked down": "SCN2A (sodium voltage-gated channel alpha subunit 2)", "reagent no.": 1, "cell gain with vemurafenib": 0.62, "lactate per cell with vemurafenib": 0.26}
{"gene knocked down": "CIMAP3 (ciliary microtubule associated protein 3)", "reagent no.": 1, "cell gain with vemurafenib": 0.79, "lactate per cell with vemurafenib": 0.87}
{"gene knocked down": "CASK (calcium/calmodulin dependent serine protein kinase)", "reagent no.": 1, "cell gain with vemurafenib": 0.47, "lactate per cell with vemurafenib": 0.86}
{"gene knocked down": "TLE5 (TLE family member 5, transcriptional modulator)", "reagent no.": 1, "cell gain with vemurafenib": 0.67, "lactate per cell with vemurafenib": 1.34}
{"gene knocked down": "JAK2 (Janus kinase 2)", "reagent no.": 1, "cell gain with vemurafenib": 0.73, "lactate per cell with vemurafenib": 1.13}
{"gene knocked down": "CHRM2 (cholinergic receptor muscarinic 2)", "reagent no.": 1, "cell gain with vemurafenib": 0.98, "lactate per cell with vemurafenib": 0.91}
{"gene knocked down": "DUX1 (double homeobox 1)", "reagent no.": 1, "cell gain with vemurafenib": 0.67, "lactate per cell with vemurafenib": 1.2}
{"gene knocked down": "GRM4 (glutamate metabotropic receptor 4)", "reagent no.": 1, "cell gain with vemurafenib": 0.84, "lactate per cell with vemurafenib": 0.85}
{"gene knocked down": "SEPTIN4 (septin 4)", "reagent no.": 1, "cell gain with vemurafenib": 0.67, "lactate per cell with vemurafenib": 1.22}
{"gene knocked down": "SEPTIN4 (septin 4)", "reagent no.": 2, "cell gain with vemurafenib": 0.57, "lactate per cell with vemurafenib": 1.61}
{"gene knocked down": "OR5V1 (olfactory receptor family 5 subfamily V member 1)", "reagent no.": 1, "cell gain with vemurafenib": 0.44, "lactate per cell with vemurafenib": 1.08}
{"gene knocked down": "SLC35F2", "reagent no.": 1, "cell gain with vemurafenib": 0.41, "lactate per cell with vemurafenib": 1.18}
{"gene knocked down": "AMPD3 (adenosine monophosphate deaminase 3)", "reagent no.": 1, "cell gain with vemurafenib": 0.78, "lactate per cell with vemurafenib": 0.64}
{"gene knocked down": "ANGPTL6 (angiopoietin like 6)", "reagent no.": 1, "cell gain with vemurafenib": 0.81, "lactate per cell with vemurafenib": 0.7}
{"gene knocked down": "GJA5 (gap junction protein alpha 5)", "reagent no.": 1, "cell gain with vemurafenib": 0.3, "lactate per cell with vemurafenib": 0.84}
{"gene knocked down": "TXNDC11 (thioredoxin domain containing 11)", "reagent no.": 1, "cell gain with vemurafenib": 0.24, "lactate per cell with vemurafenib": 1.4}
{"gene knocked down": "EEA1 (early endosome antigen 1)", "reagent no.": 1, "cell gain with vemurafenib": 0.83, "lactate per cell with vemurafenib": 1}
{"gene knocked down": "MS4A6E (membrane spanning 4-domains A6E)", "reagent no.": 1, "cell gain with vemurafenib": 0.38, "lactate per cell with vemurafenib": 1.43}
